Results from the supplement of paper PMC3334620.
Over roughly 33,000 sequences, “E-score (-0.5 to 0.5)” has its median near -0.0014; the highest 2% begin near 0.25. This is one part of the list.

target: T1, Cad1 (UniProt P24813); test: PBM E-score (8-mer binding enrichment) (E-score (-0.5 to 0.5)); higher = stronger / more preferred TF binding; details: protein concentration: 100 nM; construct: GST-full length
T1 sequence: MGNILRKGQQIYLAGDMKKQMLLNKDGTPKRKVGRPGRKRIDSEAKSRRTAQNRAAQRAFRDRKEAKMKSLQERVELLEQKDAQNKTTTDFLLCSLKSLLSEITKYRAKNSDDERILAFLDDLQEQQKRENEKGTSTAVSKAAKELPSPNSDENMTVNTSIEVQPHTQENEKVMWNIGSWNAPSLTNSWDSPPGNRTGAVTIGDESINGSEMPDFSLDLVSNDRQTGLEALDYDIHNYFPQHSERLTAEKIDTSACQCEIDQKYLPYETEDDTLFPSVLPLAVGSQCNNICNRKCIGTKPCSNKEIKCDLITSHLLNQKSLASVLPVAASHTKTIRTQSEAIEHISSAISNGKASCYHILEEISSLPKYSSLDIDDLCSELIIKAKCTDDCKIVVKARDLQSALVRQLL
Experimental: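 Universal 'all 10-mer' protein binding microarrays (Agilent AMADID 015681) probed with GST-tagged S. cerevisiae TFs (full-length or DBD) made by in vitro transcription/translation (PURExpress), about 100-200 nM. Bound TF was detected with fluorescent anti-GST. Each ungapped 8-mer (which stands for itself and its reverse complement) is scored by the PBM enrichment score (E-score), a modified Wilcoxon-Mann-Whitney statistic from -0.5 to +0.5, computed with the Universal PBM Analysis Suite. Scale: above 0.35 generally sequence-specific binding.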

Sequence	PBM E-score
GGGCGAGA	-0.202
CCCTTCCC	-0.151
CGCTGAAA	-0.011
AGCTATAT	0.101
AGTCTCCC	-0.146
AGCGGACG	0.0985
CTCTTCGA	-0.055
CCGCGAGG	0.0994
CCTAGGGA	-0.0777
GAGAATGC	0.104
CCCCAAGC	0.0235
CGGCCGAG	0.0359
TCAATAGA	-0.0707
ACAACGCC	-0.0203
TACATAAA	0.111
GAGCGCCC	-0.164
CACAATTC	0.108
AGCGAGTC	-0.121
AGTGCAAG	0.2
AACCGAGC	0.075
ATGGCCTC	-0.0388
GCCCACGA	-0.0771
CTGGCAAA	0.106
ATCTTCGA	0.111
AATACCCG	-0.0354

Reprinted at random: 6 records from the list.
Sequence	PBM E-score
CGGCCGAG	0.0359
GAGAATGC	0.104
AGTGCAAG	0.2
ACAACGCC	-0.0203
GAGCGCCC	-0.164
CCTAGGGA	-0.0777

The results go on.

Sequence	PBM E-score
ACTATGTA	-0.0426
ATGACTTG	-0.0608
ACTCCAAT	0.0079
GCGTGAAA	0.141
CTGAACTC	-0.133
TCCTCCAA	-0.187
ATGACTGC	-0.0169
GAGTGTGC	0.0246
GTGCGATA	-0.0795
CTTCATCA	0.198
CGATAGGC	-0.0634
ATCAGGGC	-0.0821
GCGTGCGA	0.0461
GGAGGAAA	-0.0105
GTGCTGCA	0.0818
CGTGAAAA	0.202
CCCGGAGA	0.0241
GCTGACGA	0.243
AGGTATCC	-0.0007
ACATACAC	0.0267
CAAGAATG	-0.131
GATAACAC	0.089
CAGAACTC	0.0173
AATGATGG	0.0938
AATTCCCG	0.104

Sequence	PBM E-score
AGGGACTA	-0.132
ATGGTGAC	-0.161
GTAGTAAC	-0.0198
CCCTATAG	-0.143
AACGCCGC	-0.00077
CTTACAAC	0.118
CTGAGCAG	0.0755
CGTTTACC	0.124
GATCCAAC	-0.109
GCCGTCAC	-0.0462
AGAATATG	0.129
CTATTCTA	0.122
CAGTAGAA	-0.0744
AACTTCCT	0.0129
CGGGTGAC	-0.0446
GCGACGCC	-0.0999
ACTGGGGG	-0.357
AATTGCGG	-0.00661
ATAAAGCC	-0.0352
GTTCGAGA	0.102
CACAAGGA	-0.0533
ACAGCATG	-0.053
AATAGCCT	-0.18
CCAGTGTA	-0.019
GCTTTAGA	-0.143

Sequence	PBM E-score
AGGATATA	0.136
GTCGGACA	0.0907
TGGAGACA	0.047
CCATCTGA	-0.00898
CAAGCAAA	0.0203
TAAGCTTA	0.378
TTCAAAAA	-0.0855
CACACATC	-0.164
ACTGCATG	0.0724
TCAGTTAA	-0.0647
ACAGCACT	0.173
TATACATA	0.0239
CGAAGCAC	-0.0455
ACCTCGCC	-0.0962
AAAACTGG	0.015
CAATGTTA	0.0664
CGGGACAC	-0.0454
CACACAAG	0.013
CGTCGTTA	0.0352
AACTAATT	0.217
GCTTTCTA	0.241
GGCTGTTA	0.0352
GTAGAACA	-0.179
GGCGACCA	-0.169
CGTGTTGC	0.0661

Sequence	PBM E-score
CGATCGCG	0.122
ACGGACAA	0.244
AGCAAACT	0.125
AGTAACTG	0.0501
AAAATAGC	-0.0928
CAGCCTCA	-0.0913
ACTTTTTC	0.0204
CCACGTCC	-0.193
ACGACTTC	-0.0241
GGCGTACA	-0.00166
ATATTCAC	0.129
CTGGGCAA	-0.00151
ACTGGTAG	-0.146
CAATTTAA	0.156
CACTTATC	0.128
AAGACGCG	-0.0357
ACATCCGA	0.058
TAATGACA	0.139
ACACAATG	0.0841
CAAGGGGC	-0.148
GAGGCACC	-0.33
ACCTGTTG	-0.0789
CCGCTACG	-0.165
CGGTTCTC	-0.0464
CGCAGACC	-0.146

Sequence	PBM E-score
ATCTTCTG	-0.113
CCCGACGC	-0.068
AGATAGCC	-0.226
CCGATAGC	0.0126
AGGAGTAT	-0.124
AGTAACGG	0.033
GGGATCAC	-0.211
CGGCCCTC	-0.241
AACATGGA	0.0132
GATGTGCC	-0.146
GGGATAGA	-0.267
GACCTGGC	-0.154
CAGAATTC	0.121
AACCCACA	0.137
CCCGATCA	-0.165
CACAGTGG	-0.0816
GGACCGAC	-0.0271
AAGAAGAC	-0.114
GCACTCGC	0.00899
GCAGCGGA	-0.0753
AAGTGACA	0.161
CACCGCAA	0.23
GCTCCTCC	-0.241
AGACAAAA	0.0349
ATGCTGGA	0.0416

Sequence	PBM E-score
GAGCTTCC	0.123
GGTGTTAC	-0.0578
AACACGAC	0.102
AATCTCAA	0.0961
CCACCTCA	-0.0922
ACTTAGCA	0.0611
CACAGGAA	-0.168
ACAATCGG	0.195
GCATTGAC	-0.0478
CCTCCGCA	-0.125
GGGTGTGA	-0.212
CATCCATA	0.0846
GCTAGCAC	0.025
TACCCATA	-0.121
CCAGTGGG	-0.318
GGTACTTA	-0.0473
ACCTTTGC	-0.0613
ATAGAGTC	-0.148
CCGTAGCA	-0.0883
CATTGACG	0.0193
GAACGAAA	-0.0129
AGGTTAAC	-0.00764
